# Screen size: about 320,000 compounds; about 22,000 (6.9%) were called active. Inconclusive means that the source gave no clear call. Such entries were picked first, then a sample of the others. Calls follow the shape of the dose curve; as a rule, active = well fitted inhibition curve with a large enough effect; inconclusive = small, poorly fitted or top-dose-only effect, or another doubt; inactive = no such curve, though single readings can be large or run the other way. Potencies beside an inconclusive call are fits to weak or partial responses and may not hold up.
# Assay: Primary qHTS for delayed death inhibitors of the malarial parasite plastid, 96 hour incubation
# Settings: P. falciparum luciferase reporter growth; series mostly up to 28.7 µM
# How it was run: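 Infected RBCs, 2% Hct / 0.05% parasitemia final; luciferase-reporter P. falciparum; cpd 96 h, 37 C, 5% CO2; luciferase detection reagent; luminescence.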
# Potency is read from the fitted curve at half-maximal effect.
row,SMILES,Potency
1,O=C(c1sc2ccccc2c1Cl)N(Cc1ccccc1Cl)C1CCS(=O)(=O)C1 (stereo not drawn),"inconclusive: 10.4 µM [inhibitor, single point]"
2,COCCN(C(=O)c1ccco1)c1nc(-c2ccccc2)cs1,"inconclusive: 8.28 µM [inhibitor, partial curve, poor fit]"
3,C=CCn1c(SCCCCCC)nc(O)cc1=O,active: 6.57 µM
4,Oc1ccc(Br)cc1/C=N/NC(=S)NCCc1ccccc1,active: 2.33 µM
5,COc1ccc(NS(=O)(=O)c2cc(OC)ccc2NC(=O)c2cc(C)oc2C)cc1,"inconclusive: 18.5 µM [inhibitor, single point]"
6,CCOC(CNC(=O)C1CCN(S(=O)(=O)c2ccc3nc4c(c(C(=O)O)c3c2)CCCCC4)CC1)OCC,inactive
7,Cc1c(C(=O)NCCN2CCOCC2)oc2ccc(S(=O)(=O)N3CCCCCC3)cc12,"inconclusive: 0.165 µM [inhibitor, full curve, poor fit]"
8,CCOc1ccc2nc(N3C(=O)CNC3=S)sc2c1,"inconclusive: 8.28 µM [inhibitor, single point]"
9,Cn1c(C(=O)N2CCN(c3ccc([N+](=O)[O-])cc3)CC2)cc2c(=O)[nH]c3ccccc3c21,"inconclusive: 8.28 µM [inhibitor, partial curve, poor fit]"
10,c1cc(C2CCCCC2)ccc1Oc1nc(N2CCOCC2)nc(N2CCOCC2)n1,"inconclusive: 6.57 µM [inhibitor, partial curve]"
11,CCOc1cc(/C=C/C(=O)c2ccc(C)cc2)ccc1OCC(=O)N(C)C,"inconclusive: 18.5 µM [inhibitor, single point]"
12,COc1ccccc1CNC(=O)COC(=O)[C@H](Cc1c[nH]c2ccccc12)NC(=O)c1cccs1,inactive
13,O=C(/C=C/c1cn(-c2ccccc2)nc1-c1ccc2c(c1)OCCO2)NCCO,"inconclusive: 2.08 µM [inhibitor, partial curve]"
14,COc1ccc(S(=O)(=O)N(Cc2ccccc2)Cc2nc3ccccc3c(=O)[nH]2)cc1,inactive
15,O=C(COC(=O)c1c2c(nc3ccccc13)CCCC2)c1cccs1,"inconclusive: 10.4 µM [inhibitor, partial curve]"
16,Cc1nnc(SCC(=O)Nc2ccc([N+](=O)[O-])cc2)n1CC1CCCO1 (stereo not drawn),inactive
17,CC1CCN(S(=O)(=O)c2cccc(C(=O)NCc3ccco3)c2)CC1,inactive
18,CCCCN(CCCNC(=O)C1CCCN(S(=O)(=O)CCC)C1)Cc1ccccc1 (stereo not drawn),inactive
19,CC1CCCCN1S(=O)(=O)c1ccc(NC(=O)CSc2nnnn2C)cc1 (stereo not drawn),"inconclusive: 11.7 µM [inhibitor, single point]"
20,C[C@H](NC(=O)[C@@H]1CSC2c3ccccc3C(=O)N21)C(=O)NC1CCCCC1 (stereo partly drawn),"inconclusive: 18.5 µM [inhibitor, single point]"
21,Cc1oc(-c2ccoc2)nc1CN(CC1CCC(=O)N1)C(C)C (stereo not drawn),inactive
22,CC(SCc1ccccc1)C(=O)N/N=C/c1cc2c(cc1Br)OCO2 (stereo not drawn),"inconclusive: 1.17 µM [inhibitor, partial curve]"
23,Cc1nc(-c2ccccc2)sc1-c1nc(-c2ccccc2)ncc1S(=O)(=O)c1ccccc1,"inconclusive: 2.94 µM [inhibitor, full curve]"
24,O=S(=O)(c1ccc2c(c1)OCCO2)N(Cc1ccc(F)cc1)Cc1nnc(-c2cccs2)o1,inactive
25,O=c1oc2ccccc2c(O)c1CN1CCCCC1,active: 14.7 µM

row,SMILES,Potency
1,CCCc1nc2oc3c(NCCCN(C)C)ncnc3c2c2c1CCCC2,active: 13.1 µM
2,Cc1ccccc1OCc1nnc(SCCN2CCCC2)n1-c1ccccc1,"inconclusive: 9.28 µM [inhibitor, single point]"
3,COc1ccc(N2CCN(S(=O)(=O)CCNC(=O)C34CC5CC(CC(C5)C3)C4)CC2)cc1,"inconclusive: 1.47 µM [inhibitor, full curve]"
4,CC(C)(C)c1ccc(OCC(=O)NCCN2CCOCC2)cc1,inactive
5,COCCNC(=O)c1cc2nc3c(c(C(F)(F)F)n2n1)CCc1ccccc1-3,"inconclusive: 16.5 µM [inhibitor, partial curve, poor fit]"
6,COc1ccc(CCNC(=O)c2cc3c(=O)n4cccc(C)c4nc3n(CCCN3CCOCC3)c2=N)cc1,"inconclusive: 0.465 µM [inhibitor, full curve]"
7,COCC(=O)Nc1ccc(S(=O)(=O)Nc2ccccn2)cc1,"inconclusive: 11.7 µM [inhibitor, single point]"
8,O=C(Oc1ccc2cc(Br)ccc2c1)c1cccnc1,inactive
9,CC(Oc1ccc2c3c(c(=O)oc2c1)CCC3)C(=O)NC1CCN(Cc2ccccc2)CC1 (stereo not drawn),"inconclusive: 11.7 µM [inhibitor, partial curve]"
10,CCOC(=O)C1(C(F)(F)F)N=C(C(F)(F)F)Nc2ccc(F)cc21 (stereo not drawn),"inconclusive: 18.5 µM [inhibitor, partial curve, poor fit]"
11,Nc1c(C(=O)OCc2ccccc2)c2nc3ccccc3nc2n1Cc1cccs1,active: 14.7 µM
12,CCOCCCNC(=S)N1C2CCC1CC(NC(=O)NC1CCCCC1)C2 (stereo not drawn),inactive
13,CC[N+]1(CC)CC2=Cc3c(ccc4ccccc34)C(C)C2C1 (stereo not drawn),active: 1.47 µM
14,Cc1nn(C)c(C)c1NC(=O)Nc1ccc(Cl)c(Cl)c1,"inconclusive: 1.04 µM [inhibitor, partial curve, poor fit]"
15,CCOC(=O)c1c(NC(=O)CSc2nc3ccc(OC)cc3[nH]2)sc2c1CC(C)(C)NC2(C)C,active: 5.86 µM
16,CCOc1ccc(C(=O)Nc2ccc(S(=O)(=O)N3CCOCC3)cc2)cc1OCC,"inconclusive: 16.5 µM [inhibitor, partial curve, poor fit]"
17,O=C(NC(=S)Nc1cc([N+](=O)[O-])ccc1O)C1CC1,"inconclusive: 1.85 µM [inhibitor, full curve]"
18,OC(COc1c(Cl)cc(Cl)cc1Cl)CN1CCCCC1 (stereo not drawn),"inconclusive: 8.28 µM [inhibitor, partial curve, poor fit]"
19,CC(CCc1ccccc1)NC(=O)c1ccc(NC(=O)c2cccc(Br)c2)cc1 (stereo not drawn),active: 9.28 µM
20,Cc1cccc(OCc2occc2C(=O)Nc2cccc(-n3cnnn3)c2)c1,"inconclusive: 18.5 µM [inhibitor, single point]"
21,Cc1[nH][nH]c(=O)c1C(c1ccc(-c2cccc(C(=O)O)c2)o1)c1c(C)[nH][nH]c1=O,inactive
22,Cc1nnc(SCC(=O)Nc2cccc(C(F)(F)F)c2)[nH]c1=O,"inconclusive: 0.465 µM [inhibitor, full curve, poor fit]"
23,c1ccc(-c2noc(CN3CCOCC3)n2)cc1,"inconclusive: 11.7 µM [inhibitor, single point]"
24,COC(=O)C(C)N=Cc1ccccc1 (stereo not drawn),"inconclusive: 2.94 µM [inhibitor, single point]"
25,CCOC(=O)CCSc1nc(C)c2cc(OC)ccc2n1,inactive

row,SMILES,Potency
1,COc1cc(NC(=O)c2ccc(Br)o2)c(C(=O)O)cc1OC,inactive
2,N#CC(c1ccccn1)c1ncc(C(F)(F)F)cc1Cl (stereo not drawn),inactive
3,CCN1CCCC1CN(Cc1cc2ccc(C)c(C)c2[nH]c1=O)C(=O)Nc1ccccc1OC (stereo not drawn),"inconclusive: 10.4 µM [inhibitor, partial curve, poor fit]"
4,Cc1onc(-c2ccccc2)c1C(=O)N1CCN(C/C=C/c2ccccc2)CC1,active: 2.08 µM
5,O=C(O)C1CCC(CNS(=O)(=O)c2ccccc2)CC1 (stereo not drawn),inactive
6,COc1cc(/C=N/Nc2cc(C)nc(N)n2)ccc1O,"inconclusive: 18.5 µM [inhibitor, single point]"
7,CSc1ncccc1-c1nc2ccccc2[nH]1,inactive
8,C=C(Br)Cn1c(CCC)nc2ccccc21,active: 10.4 µM
9,CCn1cc(C(=O)NC2CCCCCC2)c(=O)c2ccc(C)nc21,inactive
10,Cc1ccc(Nc2nc(N)nc(CCl)n2)c(C)c1,inactive
11,CCC1Sc2ccccc2N(CC(=O)NCCC(C)C)C1=O (stereo not drawn),"inconclusive: 8.28 µM [inhibitor, partial curve, poor fit]"
12,CCOC(=O)C1CCCN(c2c(Nc3ccc(C)c(C)c3)c(=O)c2=O)C1 (stereo not drawn),inactive
13,CN(CC(=O)NC1CCCCC1)S(=O)(=O)c1cccc2nsnc12,"inconclusive: 16.5 µM [inhibitor, partial curve, poor fit]"
14,CN(C)S(=O)(=O)c1ccc(C(=O)NN2C(=O)NC3(CCCCC3)C2=O)cc1,inactive
15,CC(C)c1ccc(OCc2ccc(C(=O)N3CCCC3)o2)cc1,inactive
16,CCCCCCCCCCCCCCCCCCOCC(O)CO (stereo not drawn),"inconclusive: 5.36 µM [inhibitor, partial curve]"
17,C=CCOc1ccccc1CN1CCCC(CCC(=O)N(C)CCc2ccccn2)C1 (stereo not drawn),active: 11.7 µM
18,CC(=O)Nc1ccc(/C(C)=N/NC(=O)CN(c2ccccc2Br)S(C)(=O)=O)cc1,"inconclusive: 0.0208 µM [inhibitor, full curve, poor fit]"
19,COc1ccc(-n2nc(C(=O)NCC(=O)NCCCN3CC(C)CC(C)C3)c3ccccc3c2=O)cc1 (stereo not drawn),"inconclusive: 10.4 µM [inhibitor, partial curve, poor fit]"
20,O=C(NC1=NCCS1)C12CC3CC(CC(C3)C1)C2,"inconclusive: 9.28 µM [inhibitor, partial curve, poor fit]"
21,O=C(NCCc1ccc(Cl)cc1)c1ccc(OCC2CCCO2)cc1 (stereo not drawn),inactive
22,CCOc1ccc(-c2c(C(=O)N/N=C/c3ccc(OC(C)C)cc3)nnn2-c2nonc2N)cc1,"inconclusive: 2.94 µM [inhibitor, full curve, poor fit]"
23,CC(=O)Nc1ccc(NC(=O)C(C)OC(=O)c2cc(S(=O)(=O)N(C)C)ccc2N2CCCC2)cc1 (stereo not drawn),"inconclusive: 0.465 µM [inhibitor, partial curve, poor fit]"

# An excerpt taken from the entries so far, for reference:
row,SMILES,Potency
12,COc1ccccc1CNC(=O)COC(=O)[C@H](Cc1c[nH]c2ccccc12)NC(=O)c1cccs1,inactive
13,O=C(/C=C/c1cn(-c2ccccc2)nc1-c1ccc2c(c1)OCCO2)NCCO,"inconclusive: 2.08 µM [inhibitor, partial curve]"
14,COc1ccc(S(=O)(=O)N(Cc2ccccc2)Cc2nc3ccccc3c(=O)[nH]2)cc1,inactive

# 3 of the compounds above, with bars between the fields.
row | SMILES | Potency
11 | CCC1Sc2ccccc2N(CC(=O)NCCC(C)C)C1=O (stereo not drawn) | inconclusive: 8.28 µM [inhibitor, partial curve, poor fit]
12 | CCOC(=O)C1CCCN(c2c(Nc3ccc(C)c(C)c3)c(=O)c2=O)C1 (stereo not drawn) | inactive
13 | CN(CC(=O)NC1CCCCC1)S(=O)(=O)c1cccc2nsnc12 | inconclusive: 16.5 µM [inhibitor, partial curve, poor fit]
